Results: patent publication US20230029372A1, “THERAPEUTIC COMPOSITIONS AND METHODS FOR PREVENTION AND TREATMENT OF DIASTOLIC DYSFUNCTION” (AMBETEX PTY LTD, priority 2019, published 2023)

Tested on: Male C57BL6 mice
Test: Aβ42 administration study: plasma Aβ42, body measures, GTT with glucose tracers, cardiac TAG, gene expression
Type: in vivo
Conditions: 1 μg/day i.p., five weeks

Aβ42: Lyophilised recombinant Aβ42 (Millipore)
no change: body composition | body weight | food intake
